The text below walks through data of PMC5247606.

By UniProt entry, the sequences of proteins in these tests, tags left out.
UniProt P31266: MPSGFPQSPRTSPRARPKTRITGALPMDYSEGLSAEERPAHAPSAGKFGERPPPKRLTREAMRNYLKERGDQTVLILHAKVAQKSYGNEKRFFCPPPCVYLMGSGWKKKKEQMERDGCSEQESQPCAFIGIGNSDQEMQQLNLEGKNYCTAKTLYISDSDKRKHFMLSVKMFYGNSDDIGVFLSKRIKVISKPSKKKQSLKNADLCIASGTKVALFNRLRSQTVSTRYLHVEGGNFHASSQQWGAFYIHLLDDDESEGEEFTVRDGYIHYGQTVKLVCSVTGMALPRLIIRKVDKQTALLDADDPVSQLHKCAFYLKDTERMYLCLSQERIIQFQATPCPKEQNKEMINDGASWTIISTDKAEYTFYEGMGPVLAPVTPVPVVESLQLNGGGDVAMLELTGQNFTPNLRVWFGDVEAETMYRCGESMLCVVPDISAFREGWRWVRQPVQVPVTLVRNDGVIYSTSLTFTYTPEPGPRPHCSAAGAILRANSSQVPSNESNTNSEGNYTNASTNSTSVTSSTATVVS
UniProt Q9R1E0: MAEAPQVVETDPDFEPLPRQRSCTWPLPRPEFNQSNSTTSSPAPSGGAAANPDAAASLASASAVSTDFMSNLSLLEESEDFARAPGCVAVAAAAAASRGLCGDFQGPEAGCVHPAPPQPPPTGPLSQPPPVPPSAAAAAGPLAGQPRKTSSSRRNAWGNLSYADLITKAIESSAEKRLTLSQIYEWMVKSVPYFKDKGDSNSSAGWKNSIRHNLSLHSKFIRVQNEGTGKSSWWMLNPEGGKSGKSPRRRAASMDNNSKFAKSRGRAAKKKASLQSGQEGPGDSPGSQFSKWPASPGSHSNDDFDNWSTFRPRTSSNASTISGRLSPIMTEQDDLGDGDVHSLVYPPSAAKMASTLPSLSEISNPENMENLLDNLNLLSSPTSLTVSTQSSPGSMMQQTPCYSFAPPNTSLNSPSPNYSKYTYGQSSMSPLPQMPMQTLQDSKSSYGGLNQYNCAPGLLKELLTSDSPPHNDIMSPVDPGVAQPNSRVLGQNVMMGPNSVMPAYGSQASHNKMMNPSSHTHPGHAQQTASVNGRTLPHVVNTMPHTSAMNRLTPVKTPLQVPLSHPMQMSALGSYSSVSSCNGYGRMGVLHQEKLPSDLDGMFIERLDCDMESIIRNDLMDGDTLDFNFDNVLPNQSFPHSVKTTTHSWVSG

Results are given in words; binding and its absence hold for the method and conditions named. In cells and extracts the contact can be indirect. Some entries that bind do so weakly or less than the wild type.

The assay has as its target RBPJκ (mouse (endogenous in primary myoblasts)) (UniProt P31266). In words: co-IP; total or nuclear protein from Rosa^Notch1 primary myoblasts infected with or without AdCre (Notch activation) and AdFoxO1-ADA adenovirus; lysate (500 ug total protein) precleared, 4 ug anti-RBPJκ or rabbit IgG overnight at 4 °C, protein A/G agarose, six washes, western blot. (In western blotting, separated proteins are transferred to a membrane and probed.)

Take “Forkhead box protein O1 (FoxO1) (from UniProt Q9R1E0 1-652)”: the binding entry was “binds”.
